Laboratory results taken from PMC10074136.

T1: cytochrome c oxidase subunit 4 isoform 2 (COX4I2) (mouse (endogenous in mouse chondrocytes)) (UniProt Q91W29)
T1 sequence: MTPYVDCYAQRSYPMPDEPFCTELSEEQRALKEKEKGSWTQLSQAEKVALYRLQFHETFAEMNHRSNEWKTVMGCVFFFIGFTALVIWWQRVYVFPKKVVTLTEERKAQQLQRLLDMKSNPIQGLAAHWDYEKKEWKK

B1: cytochrome c oxidase subunit 4 isoform 2 (COX4I2) (protein, UniProt Q91W29 35-172)
chain: T1 sequence

Legend:
[1] = biological target: T1, cytochrome c oxidase subunit 4 isoform 2 (COX4I2) (mouse (endogenous in mouse chondrocytes)); assay: co-IP; lysates of mouse chondrocytes transfected with or without Sirt3-targeting pcDNA3.1 vector; precleared with protein A/G plus agarose; anti-SIRT3, anti-COX4I2 or non-specific IgG at 4 °C overnight; western blot; forward and reverse
[2] = biological target: Silent mating type information regulation 2 homolog 3 (SIRT3) (mouse (endogenous in mouse chondrocytes)); assay: as above

| Molecule | binding [1] | binding [2] |
| --- | --- | --- |
| Silent mating type information regulation 2 homolog 3 (SIRT3) (mouse (endogenous in mouse chondrocytes)) (enzyme) | binds |  |
| B1 |  | binds |

Results are given in words; binding and its absence hold for the method and conditions named. In cells and extracts the contact can be indirect. Binding calls can cover weak binding; strength is not graded here.
